Laboratory results: paper PMC12804905
No constants are given. Whether binding was seen depends on the method and setting. Binding seen in cells or lysates may run through a third protein. Tags and fused reporters may be left off the sequences shown. Each block holds one binder with its values, some of them ahead of it.

Key:
[1] = biological target: T1, HIF-1(P621G)::3xFLAG (C. elegans) (UniProt G5EGD2); assay: co-IP; HEK293T cells co-expressing the three proteins from pSZ336; lysate immunoprecipitated overnight at 4 °C with anti-MYC, anti-FLAG or anti-HA magnetic beads; washes with PBS, RIPA with 300 mM NaCl and RIPA with 1 M NaCl; western blot for the individual protein tags
T1 sequence: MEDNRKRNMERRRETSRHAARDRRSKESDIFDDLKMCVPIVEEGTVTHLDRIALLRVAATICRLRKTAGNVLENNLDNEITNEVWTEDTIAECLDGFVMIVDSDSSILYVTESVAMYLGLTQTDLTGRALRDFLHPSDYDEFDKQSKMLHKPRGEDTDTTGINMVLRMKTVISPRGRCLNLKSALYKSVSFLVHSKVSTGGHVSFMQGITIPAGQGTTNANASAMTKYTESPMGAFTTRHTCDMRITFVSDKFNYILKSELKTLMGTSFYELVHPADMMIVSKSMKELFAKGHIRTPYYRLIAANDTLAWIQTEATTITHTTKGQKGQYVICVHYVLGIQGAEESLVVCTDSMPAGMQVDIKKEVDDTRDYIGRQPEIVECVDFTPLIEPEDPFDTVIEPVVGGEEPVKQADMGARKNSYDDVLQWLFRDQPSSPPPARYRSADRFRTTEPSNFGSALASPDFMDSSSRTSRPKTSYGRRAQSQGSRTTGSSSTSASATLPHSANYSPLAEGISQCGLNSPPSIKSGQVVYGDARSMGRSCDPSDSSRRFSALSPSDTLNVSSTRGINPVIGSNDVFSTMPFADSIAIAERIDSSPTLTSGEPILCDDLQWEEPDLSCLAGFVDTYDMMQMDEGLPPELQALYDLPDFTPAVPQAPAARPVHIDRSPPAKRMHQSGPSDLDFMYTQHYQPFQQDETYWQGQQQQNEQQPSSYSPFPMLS

[2] = biological target: T2, ATFS-1::2xMYC (C. elegans) (UniProt Q23272); assay: as above
T2 sequence: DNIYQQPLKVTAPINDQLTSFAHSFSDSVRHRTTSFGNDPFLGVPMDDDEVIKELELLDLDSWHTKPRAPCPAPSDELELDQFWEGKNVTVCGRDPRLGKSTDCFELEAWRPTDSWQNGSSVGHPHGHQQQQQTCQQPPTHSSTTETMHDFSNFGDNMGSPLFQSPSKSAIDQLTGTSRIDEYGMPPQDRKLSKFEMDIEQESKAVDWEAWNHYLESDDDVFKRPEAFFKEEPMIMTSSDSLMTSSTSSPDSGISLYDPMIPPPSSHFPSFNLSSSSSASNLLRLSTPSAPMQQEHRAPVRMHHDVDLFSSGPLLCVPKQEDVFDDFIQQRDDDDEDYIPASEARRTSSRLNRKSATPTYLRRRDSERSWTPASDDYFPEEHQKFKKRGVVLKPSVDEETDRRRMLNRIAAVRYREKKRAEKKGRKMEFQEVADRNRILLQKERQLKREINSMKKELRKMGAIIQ

- binding [1]: no binding
B1: ATFS-1::2xMYC (protein, UniProt Q23272-1 24-488)
chain: T2 sequence

- binding [1]: no binding
- binding [2]: no binding
B2: DAF-16::HA (protein, UniProt O16850-8 1-541)
chain: MQLEQKSSLHCSKCRNFLQKFSQDMQAWNCRELDSPLPSDITLHNLEPARPDSGMSFSTDFDDDFFNLDLHQQERSASFGGVTQYSQQFLREKCSFSPYFHTSLETVDSGRTSLYGSNEQCGQLGGASSNGSTAMLHTPDGSNSHQTSFPSDFRMSESPDDTVSGKKTTTRRNAWGNMSYAELITTAIMASPEKRLTLAQVYEWMVQNVPYFRDKGDSNSSAGWKNSIRHNLSLHSRFMRIQNEGAGKSSWWVINPDAKPGRNPRRTRERSNTIETTTKAQLEKSRRGAKKRIKERALMGSLHSTLNGNSIAGSIQTISHDLYDDDSMQGAFDNVPSSFRPRTQSNLSIPGSSSRVSPAIGSDIYDDLEFPSWVGESVPAIPSDIVDRTDQMRIDATTHIGGVQIKQESKPIKTEPIAPPPSYHELNSVRGSCAQNPLLRNPIVPSTNFKPMPLPGAYGNYQNGGITPINWLSTSNSSPLPGIQSCGIVAAQHTVASSSALPIDLENLTLPDQPLMDTMDVDALIRHELSQAGGQHIHFDL
